Results reported in paper PMC7819943, “Rice protein-binding microarrays: a tool to detect cis-acting elements near promoter regions in rice”.
Some of the results follow.

Protein sequences, listed by entry. Tags and fused reporters are not part of them.
UniProt Q0JBA9, entry or part of it: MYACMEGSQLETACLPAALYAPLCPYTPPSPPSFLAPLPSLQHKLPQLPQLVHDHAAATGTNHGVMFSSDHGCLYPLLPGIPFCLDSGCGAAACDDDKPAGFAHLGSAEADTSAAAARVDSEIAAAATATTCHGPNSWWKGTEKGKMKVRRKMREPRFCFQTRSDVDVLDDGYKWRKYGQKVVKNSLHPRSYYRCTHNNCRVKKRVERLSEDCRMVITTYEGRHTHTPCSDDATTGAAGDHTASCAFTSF

What follows are sequences tested against OsWRKY34 (Oryza sativa, UniProt Q0JBA9 1-250) (assay: protein-binding microarray (RPBM); PBS, 2% BSA, 51.3 ng/ul salmon testes DNA, 50 uM zinc acetate, 200 nM TF, 25 C, 1 h; high values mean tight binding). Details: protein: recombinant; tags: N-terminal polyhistidine and DsRed monomer fusion (pET32a); label: CyDye5-dUTP incorporated in the synthesized complementary strand; 3' TTTTT single-stranded linker to array surface; dsDNA, one strand shown.
In short: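 The binding signal for each feature is its fluorescence intensity in arbitrary units. An Axon 4000B scanner was used to read a custom Agilent array that had been made double-stranded with Cy5-dUTP primer extension, blocked with 2% BSA, incubated at 25 °C for 1 h with 200 nM protein in PBS, 2% BSA, salmon testes DNA and 50 µM zinc acetate, and washed. The protein was an N-terminal polyhistidine–DsRed transcription factor fusion from E. coli BL21-CodonPlus, purified on Ni–NTA.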
For “GATCTTTACCTTTTGCCTCGCTTCTTTCCCGCACGCGCGGCGGAGTCACCTAGTGCAG”, the binding signal was 10500 fluorescence intensity (a.u.).
“AAGTGCAACCATAGATATCCGTGTCCAGCGTTTTGACTGTCGGAGTCACCTAGTGCAG” was tested, and the binding signal was 9180 fluorescence intensity (a.u.).
“ACGTGGTGGAGAGTTGAGCGGCCGGCAGTTGAATGTTTGACGGAGTCACCTAGTGCAG” was tested, and the binding signal was 8340 fluorescence intensity (a.u.).
In the case of “CGACGGCGCGCACCCAACACAACACAATACGTCCGCGCCGCGGAGTCACCTAGTGCAG”, the binding signal is reported as 8650 fluorescence intensity (a.u.).
In the case of “TCTCTTTTGGCTGCCTGTCACGTGGGCCCCACCGTCACCGCGGAGTCACCTAGTGCAG”, the binding signal is reported as 8810 fluorescence intensity (a.u.).
“GTCCATTCCCTTATTCAGGTGTGCATGCTCTGCATCAATGCGGAGTCACCTAGTGCAG” was tested, and the binding signal was 10900 fluorescence intensity (a.u.).
For “GTCCAAGAAGGCTACACGCTGCCACTGCCAATCTGCCATGCGGAGTCACCTAGTGCAG”, the binding signal was 8120 fluorescence intensity (a.u.).
For “GAATTCATACTTTTTCCTATATTTATCTTTGGCCTTAATCCGGAGTCACCTAGTGCAG”, the binding signal was 8560 fluorescence intensity (a.u.).
In the case of “ACCATGTCTGTTTCGGCGGTGGCATTAACCAGTCAAGATCCGGAGTCACCTAGTGCAG”, the binding signal is reported as 8040 fluorescence intensity (a.u.).
For “GCAACCTCATTTCCTTGTTGTTTTGTGCTTAACACCATATCGGAGTCACCTAGTGCAG”, the binding signal was 8450 fluorescence intensity (a.u.).
With “TAGTCACCAGCCATTTTAGTCCCATTTTAATTAGTCTCTTCGGAGTCACCTAGTGCAG” the binding signal was 8080 fluorescence intensity (a.u.).
“CTTTTTTTATATGTCATGCTTGTACACATATTCCATGTACCGGAGTCACCTAGTGCAG” was tested, and the binding signal was 9350 fluorescence intensity (a.u.).
With “AGGAACCAATCGTACACACTGGCGCATACAAGCTTCCTACCGGAGTCACCTAGTGCAG” the binding signal was 8880 fluorescence intensity (a.u.).
For “TAATGTGTTTTAGTTTTTCTTCTGCGTGAAATTTCTGACTCGGAGTCACCTAGTGCAG”, the binding signal was 9060 fluorescence intensity (a.u.).
For “AAGACTCGAAATGTACTTCGTTTTTCTGTTTTCTATTTGACGGAGTCACCTAGTGCAG”, the binding signal was 9000 fluorescence intensity (a.u.).
With “GGATTTCCGCCGCCACCGTCTCCGTCGCCGGTCGCGTCAACGGAGTCACCTAGTGCAG” the binding signal was 11200 fluorescence intensity (a.u.).
For “AATTTCCCAGGCAACCACGCGCGCTGTTCTCCCGCGCTCTCGGAGTCACCTAGTGCAG”, the binding signal was 8480 fluorescence intensity (a.u.).
In the case of “CATTATGATATGTATATTTCCTTAGTCCTACAAATAGCTACGGAGTCACCTAGTGCAG”, the binding signal is reported as 9100 fluorescence intensity (a.u.).
With “CTTCTTTCCTGTGGTGGGCGACACGCTCTTCGGTTGTTTCCGGAGTCACCTAGTGCAG” the binding signal was 12700 fluorescence intensity (a.u.).
With “TTCCCCACCCGCTCTAGCCGCCCTCGCCGCCGCCGGAGCCCGGAGTCACCTAGTGCAG” the binding signal was 8200 fluorescence intensity (a.u.).
With “TTTCCTTTTTTTGTCGGTGTTGGAAATAATTCCCAAGTCTCGGAGTCACCTAGTGCAG” the binding signal was 8800 fluorescence intensity (a.u.).
“GTCAAAAGATACTACATCGTCCTCAGGGACCTTGCTCCGTCGGAGTCACCTAGTGCAG” was tested, and the binding signal was 8470 fluorescence intensity (a.u.).
“AGCCTCATATTTTTCTTATTCTTATACTTATCAGCTAAAACGGAGTCACCTAGTGCAG” was tested, and the binding signal was 9740 fluorescence intensity (a.u.).
